# Source: the supplement of paper PMC9744312
# Counter-ions that a name gives are not always drawn. The list shows a part of the results. Single values of this set are uncertain.
# Test system: Peyronie's disease tunica albuginea primary fibroblasts
# Assay: cell viability (DRAQ5 nuclear stain) relative to TGF-beta1-only control; higher = more viable cells
# Settings: 10 µM; TGF-beta1 10 ng/mL; 72 h
row,SMILES,cell viability [%]
1,COCC1=C(C(=O)OC(C)OC(=O)OC(C)C)N2C(=O)[C@@H](NC(=O)/C(=N\OC)c3csc(N)n3)[C@H]2SC1 (some centres not stated) [Cefpodoxime proxetil],93.9
2,CC[C@H]1OC(=O)[C@H](C)[C@@H](O[C@H]2C[C@@](C)(OC)[C@@H](O)[C@H](C)O2)[C@H](C)[C@@H](O[C@@H]2O[C@H](C)C[C@H](N(C)C)[C@H]2O)[C@](C)(OC)C[C@@H](C)C(=O)[C@H](C)[C@@H](O)[C@]1(C)O [Clarithromycin],83.7
3,N[C@@H]1CCCCN(c2c(F)cc3c(=O)c(C(=O)O)cn(C4CC4)c3c2Cl)C1 [Besifloxacin HCl],71.6
4,CCCCC1=NC2(CCCC2)C(=O)N1Cc1ccc(-c2ccccc2-c2nnn[nH]2)cc1 [Irbesartan],91.1
5,NC(=O)Cc1cccc(C(=O)c2ccccc2)c1N [Nepafenac],94.3
6,CCCCOC(=O)c1ccc(N)cc1 [Butamben],92.4
7,CN(C)C(=O)COC(=O)Cc1ccc(OC(=O)c2ccc(NC(=N)N)cc2)cc1 [Camostat Mesilate],96.4
8,N=C(N)NC(=O)c1nc(Cl)c(N)nc1N [Amiloride HCl dihydrate],91.1
9,N=C(N)NC(=O)c1nc(Cl)c(N)nc1N [Amiloride HCl],82.1
10,Nc1ccccc1NC(=O)c1ccc(CNC(=O)OCc2cccnc2)cc1 [Entinostat (MS-275)],71.1
11,COc1cc(C(=O)NS(=O)(=O)c2ccccc2C)ccc1Cc1cn(C)c2ccc(NC(=O)OC3CCCC3)cc12 [Zafirlukast],83.9
12,Cc1cc(C2CCCCC2)n(O)c(=O)c1 [Ciclopirox],58.6
13,Cc1cc(C2CCCCC2)n(O)c(=O)c1 [Ciclopirox ethanolamine],55.5
14,CC1=C(C(=O)OC(C)C)C(c2cccc([N+](=O)[O-])c2)C(C(=O)OC2CN(C(c3ccccc3)c3ccccc3)C2)=C(N)N1 (configuration not stated) [Azelnidipine],90.3
15,NCCCC[C@H](NC(=O)[C@@H]1CCCN1C(=O)[C@@H]1CSSC[C@H](NC(=O)CNC(=O)CNC(=O)CN)C(=O)N[C@@H](Cc2ccc(O)cc2)C(=O)N[C@@H](Cc2ccccc2)C(=O)N[C@@H](CCC(N)=O)C(=O)N[C@@H](CC(N)=O)C(=O)N1)C(=O)NCC(N)=O [Terlipressin Acetate],83.8
16,NS(=O)(=O)c1cc(C(=O)O)c(NCc2ccco2)cc1Cl [Furosemide],94.7
17,O=C(O)c1cc(=O)c2ccccc2o1 [Chromocarb],93
18,CCOc1cc([C@@H](CS(C)(=O)=O)N2C(=O)c3cccc(NC(C)=O)c3C2=O)ccc1OC,72.3
19,CCOC(=O)[C@H](CCc1ccccc1)N[C@@H](C)C(=O)N1[C@H](C(=O)O)C[C@@H]2CCC[C@@H]21 [Ramipril],88
20,NC(=O)c1ncn([C@@H]2O[C@H](CO)[C@@H](O)[C@H]2O)n1 [Ribavirin],89.4
21,CNS(=O)(=O)Cc1ccc2[nH]cc(CCN(C)C)c2c1 [Sumatriptan Succinate],95.9

row,SMILES,cell viability [%]
1,CN[C@H](CC(C)C)C(=O)N[C@H]1C(=O)N[C@@H](CC(N)=O)C(=O)N[C@H]2C(=O)N[C@H]3C(=O)N[C@H](C(=O)N[C@H](C(=O)O)c4cc(O)cc(O)c4-c4cc3ccc4O)[C@H](O)c3ccc(c(Cl)c3)Oc3cc2cc(c3O[C@@H]2O[C@H](CO)[C@@H](O)[C@H](O)[C@H]2O[C@H]2C[C@](C)(N)[C@H](O)[C@H](C)O2)Oc2ccc(cc2Cl)[C@H]1O [Vancomycin HCl],85
2,NS(=O)(=O)c1cc2c(cc1Cl)N=CNS2(=O)=O [Chlorothiazide],89.9
3,CS(=O)(=O)n1cc2c(n1)CN([C@H]1CO[C@H](c3cc(F)ccc3F)[C@@H](N)C1)C2 [Omarigliptin (MK-3102)],92.3
4,CCCN(CCc1cccs1)[C@H]1CCc2c(O)cccc2C1 [Rotigotine],89.9
5,Clc1ccc(COC(Cn2ccnc2)c2ccc(Cl)cc2Cl)c(Cl)c1 (configuration not stated) [Miconazole Nitrate],93.7
6,Clc1ccc(COC(Cn2ccnc2)c2ccc(Cl)cc2Cl)c(Cl)c1 (configuration not stated) [Miconazole],85.2
7,Cc1cc(=O)n(-c2ccccc2)n1C [Antipyrine],93
8,CO[C@H]1O[C@@H]2O[C@@]3(C)CC[C@H]4[C@H](C)CC[C@@H]([C@H]1C)[C@@]24OO3 [Artemether],96.3
9,NC12CC3CC(CC(C3)C1)C2 [Amantadine HCl],95.1
10,NC12CC3CC(CC(C3)C1)C2 [Amantadine],89.9
11,NCC(=O)O [Glycine],97.3
12,Cc1ccc(-c2ncc(Cl)cc2-c2ccc(S(C)(=O)=O)cc2)cn1 [Etoricoxib],90.5
13,CC1CCc2c(N3CCC(O)CC3)c(F)cc3c(=O)c(C(=O)O)cn1c23 (configuration not stated) [Nadifloxacin],91.4
14,C=CC(=O)N1CCC(Oc2cc3c(Nc4ccc(Cl)c(Cl)c4F)ncnc3cc2OC)CC1 [Poziotinib (HM781-36B)],64.1
15,CCC(Cc1c(I)cc(I)c(N)c1I)C(=O)O (configuration not stated) [Iopanoic acid],94.9
16,CCC(NC(C)C)C(O)c1ccc(O)c(O)c1 (configuration not stated) [Isoetharine Mesylate],62.3
17,CN1C2=CC(=O)/C(=N\NC(N)=O)C=C2CC1S(=O)(=O)O (configuration not stated) [Carbazochrome sodium sulfonate (AC-17)],96.1
18,C[C@]12CC[C@@H]3c4ccc(O)cc4CC[C@H]3[C@@H]1CC[C@@H]2OC(=O)CCC1CCCC1 [Estradiol Cypionate],89.2
19,C[C@@H]1[C@H](O)[C@@H](C)/C=C/C=C/C=C/C=C/C=C/C=C/C=C/[C@H](O[C@@H]2O[C@H](C)[C@@H](O)[C@H](N)[C@@H]2O)C[C@@H]2O[C@](O)(C[C@@H](O)C[C@@H](O)[C@H](O)CC[C@@H](O)C[C@@H](O)CC(=O)O[C@H]1C)C[C@H](O)[C@H]2C(=O)O [Amphotericin B],75.7
20,CO[C@@]1(NC(=O)CSCC#N)C(=O)N2C(C(=O)O)=C(CSc3nnnn3C)CS[C@@H]21 [Cefmetazole sodium],89.5
21,CCN[C@H]1C[C@H](C)S(=O)(=O)c2sc(S(N)(=O)=O)cc21 [Dorzolamide HCl],92.3

# Taken from above:
# In cell viability [%], CCCN(CCc1cccs1)[C@H]1CCc2c(O)cccc2C1 [Rotigotine] shows 89.9
# In cell viability [%], Clc1ccc(COC(Cn2ccnc2)c2ccc(Cl)cc2Cl)c(Cl)c1 (configuration not stated) [Miconazole Nitrate] shows 93.7
# In cell viability [%], C=CC(=O)N1CCC(Oc2cc3c(Nc4ccc(Cl)c(Cl)c4F)ncnc3cc2OC)CC1 [Poziotinib (HM781-36B)] shows 64.1
